From PubChem BioAssay AID2685 (National Center for Advancing Translational Sciences (NCATS), 2010)
The list shows a part of the results. The main result of the screen is listed elsewhere. These columns were measured beside it and carry no call. The list favours compounds with an active or inconclusive main result. Words in brackets tell the shape of the fitted curve; partial curves, single points and poor fits give uncertain potencies.

Assay: qHTS Assay for Lipid Storage Modulators in Drosophila S3 Cells;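 as to cell number change: cells counted by Cell Tracker Red CMTPX staining in the red channel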
Conditions: BODIPY lipid droplet fluorescence, 18-24 h; for cell number change: measured here: cell count max response, cells fed with added oleic acid
Outline: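 Drosophila S3 cells got compounds at several concentrations plus oleic acid (400 uM solution). Laser-scanning cytometry with 488 nm excitation read lipid droplets at 500-530 nm and cells at 575-640 nm. Percent activity was relative to 20 uM Triacsin C.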

[1] = measured here: lipid fluorescence (Fed channel) AC50, cells fed with added oleic acid
[2] = measured here: cell number channel AC50, cells fed with added oleic acid

SMILES | cell number change [%] | AC50 [1] | AC50 [2]
COC(=O)c1ccc(S(=O)(=O)NNC(=O)COc2ccc(C)cc2)cc1 | -10.1 | 0.146 µM [falling, full curve, poor fit] | 
Cc1ccc(-c2cc3onc(-c4ccccc4)c3c(=O)n2C)cc1 | -2.24 |  | 
CN(CC(=O)Nc1ccccc1C(F)(F)F)C(=O)c1ccccc1Sc1ccccc1C#N | -3.67 | 6.51 µM [falling, single point] | 
CC(NS(=O)(=O)c1ccccc1)C(c1cccs1)N1CCOCC1 (stereo unspecified) | -12.8 | 0.00461 µM [falling, full curve, poor fit] | 3.66 µM [falling, partial curve, poor fit]
COc1ccc(CCn2ccc(O)c(Cc3ccc(Cl)cc3)c2=O)cc1OC | -73.9 | 0.517 µM [falling, full curve] | 2.59 µM [falling, full curve]
Cn1c(=O)c2ncn(CC(=O)O)c2n(C)c1=O | -45 | 29.1 µM [falling, single point] | 20.6 µM [falling, single point]
CN1CCC(N(C)C(=O)c2ccc(Cl)c(S(=O)(=O)Nc3cc(Cl)ccc3Cl)c2)CC1 | -59.6 | 0.92 µM [falling, full curve] | 0.58 µM [falling, full curve]
CC(C)CCNC(=O)CN(Cc1ccco1)C(=O)CCC(=O)Nc1nccs1 | -31 |  | 0.206 µM [falling, full curve, poor fit]
O=C(CSc1nnc(Cc2cccs2)n1Cc1ccco1)Nc1cc(Cl)cc(Cl)c1 | -33.8 | 25.9 µM [falling, single point] | 
COc1ccc(NC(=O)NNC(=O)c2ccc(Cl)cc2Cl)cc1OC | 12.4 | 0.184 µM [rising, full curve, poor fit] | 0.0731 µM [rising, full curve, poor fit]
O=C(CNc1cccc(Cl)c1)NNC(=S)NCc1ccccc1 | -2.24 | 6.51 µM [rising, single point] | 6.51 µM [rising, single point]
Cc1ccc(C(C(=O)NCC2CCCO2)N(Cc2ccccc2F)C(=O)Cn2nnc(-c3cccs3)n2)cc1 (stereo unspecified) | 76.3 |  | 16.4 µM [rising, partial curve]
COc1ccc(N2C(=S)NC3N2C(=S)NC3(C)c2ccccc2)cc1 (stereo unspecified) | -12.3 |  | 
CC1(C)CC(=O)C/C(=N/NC(=O)COc2ccc3ccccc3c2Br)C1 | 28.4 | 29.1 µM [rising, single point] | 
CN1CCN(C(c2ccc(Br)cc2)c2cc(Cl)c3cccnc3c2O)CC1 (stereo unspecified) |  | 18.4 µM [falling, partial curve] | 
CN(C)c1ccc(/C=C/c2nc3ccccc3c(=O)n2-c2ccc(C(=O)O)cc2)cc1 | -85.6 | 25.9 µM [falling, single point] | 29.1 µM [falling, single point]
CCOc1ccc(C2SCC(=O)N2c2c(C)n(C)n(-c3ccccc3)c2=O)cc1 (stereo unspecified) | 6.6 | 6.51 µM [falling, single point] | 

Part of the list above, in markdown.

| SMILES | cell number change [%] | AC50 [1] | AC50 [2] |
| --- | --- | --- | --- |
| CN(CC(=O)Nc1ccccc1C(F)(F)F)C(=O)c1ccccc1Sc1ccccc1C#N | -3.67 | 6.51 µM [falling, single point] |  |
| CC(NS(=O)(=O)c1ccccc1)C(c1cccs1)N1CCOCC1 (stereo unspecified) | -12.8 | 0.00461 µM [falling, full curve, poor fit] | 3.66 µM [falling, partial curve, poor fit] |
| CN1CCC(N(C)C(=O)c2ccc(Cl)c(S(=O)(=O)Nc3cc(Cl)ccc3Cl)c2)CC1 | -59.6 | 0.92 µM [falling, full curve] | 0.58 µM [falling, full curve] |
| COc1ccc(NC(=O)NNC(=O)c2ccc(Cl)cc2Cl)cc1OC | 12.4 | 0.184 µM [rising, full curve, poor fit] | 0.0731 µM [rising, full curve, poor fit] |
| O=C(CNc1cccc(Cl)c1)NNC(=S)NCc1ccccc1 | -2.24 | 6.51 µM [rising, single point] | 6.51 µM [rising, single point] |
| Cc1ccc(C(C(=O)NCC2CCCO2)N(Cc2ccccc2F)C(=O)Cn2nnc(-c3cccs3)n2)cc1 (stereo unspecified) | 76.3 |  | 16.4 µM [rising, partial curve] |
| CC1(C)CC(=O)C/C(=N/NC(=O)COc2ccc3ccccc3c2Br)C1 | 28.4 | 29.1 µM [rising, single point] |  |
| CN1CCN(C(c2ccc(Br)cc2)c2cc(Cl)c3cccnc3c2O)CC1 (stereo unspecified) |  | 18.4 µM [falling, partial curve] |  |

Following part.

SMILES | cell number change [%] | AC50 [1] | AC50 [2]
COCCSc1ccccc1C(=O)Nc1ccc2c(c1)OCCO2 | 33.8 | 6.51 µM [rising, single point] | 11.6 µM [rising, single point]
COc1cccc2cc(C(=O)NCCc3ccccc3)oc12 | 27 |  | 
O=C1c2ccccc2-c2onc3ccc(Oc4ccccc4)c1c23 | -81.1 | 9.2 µM [falling, partial curve] | 13 µM [falling, partial curve]
NC(=O)C1CCN(c2ccc(S(=O)(=O)N3CCC(Cc4ccccc4)CC3)cn2)CC1 |  | 0.13 µM [falling, full curve] | 0.00461 µM [falling, full curve, poor fit]
N#C/C(C(=O)NCc1ccccc1)=C1/SC(Cc2ccc(Cl)cc2)C(=O)N1c1ccccc1 (stereo unspecified) | 18.4 | 9.2 µM [rising, partial curve] | 
Cc1ccccc1-c1nnc(SCC#N)o1 |  | 0.0146 µM [rising, full curve, poor fit] | 
CC1(C)NC(=O)N(CC(=O)N2CCN(S(=O)(=O)c3ccccc3F)CC2)C1=O | -11.5 | 6.51 µM [falling, single point] | 
O=C(Nc1ccccn1)c1ccc(Cl)c(S(=O)(=O)N2CCc3ccccc32)c1 | -34.1 | 0.651 µM [rising, full curve] | 4.61 µM [falling, full curve, poor fit]
Cc1cc(NC(=O)CSc2ccc3nnc(-c4cccs4)n3n2)no1 | -43.3 | 0.651 µM [falling, partial curve, poor fit] | 29.1 µM [falling, single point]
Cc1ccc(S(=O)(=O)N2CCCC(C(=O)NCCc3ccc(S(N)(=O)=O)cc3)C2)cc1 (stereo unspecified) | -13.3 | 29.1 µM [rising, single point] | 
COc1ccc(-c2cc(C(=O)NC(C)C)no2)cc1 | 112 | 18.4 µM [rising, partial curve] | 18.4 µM [rising, partial curve]
CN(C(=O)c1ccccc1)c1nc2ccccc2s1 | 114 | 2.91 µM [rising, partial curve] | 14.6 µM [rising, partial curve]
CCOc1nc(Nc2ccccc2F)nc(OCC)n1 | -2.12 | 3.66 µM [falling, partial curve, poor fit] | 0.0517 µM [falling, full curve, poor fit]
CCN1CCN(C(CNS(=O)(=O)c2ccc(C)cc2)c2cccnc2)CC1 (stereo unspecified) | 13.1 | 0.103 µM [falling, full curve] | 
COc1nc(NCCC2=CCCCC2)nc(OC)n1 | -17.4 | 0.13 µM [rising, full curve, poor fit] | 
O=C(c1ccc(Br)o1)N1CCC(c2nc3ccccc3[nH]2)CC1 | 30.6 | 25.9 µM [rising, single point] | 6.51 µM [rising, partial curve, poor fit]
